Test results reported in PubChem BioAssay AID328 (DTP/NCI, 2004).
The list is a part of this screen's results and no random one: it is rich in T/C values a quarter to a half above the control, in often repeated tests (any T/C) and in doses without a T/C. Further doses and runs are listed elsewhere. T/C: endpoint of the treated group in % of that of the vehicle group. Some entries give survivors of the animals treated and no T/C: the source files T/C as zero there, which appears to mark a toxic dose or a test without result, not a measured value. Some doses without a T/C left all or most animals alive at the check, yet need not have been tolerated: survival well below the control is almost never listed, so the zero probably covers shortened survival too. Counts of survivors are from the toxicity check (mostly the fifth day) where no day follows; animals may have died later. Schedule codes are those of the source, taken here to give the interval after Q, in days (D) or hours (H), and the number of doses after X. For survival time, the PubChem record calls one and a half times the control and up active, and a quarter to a half above the control has no call in these data; cut-offs in other NCI protocols can differ.

System: BDF1 mice, P388 leukemia ip, median survival T/C
Experiment: NCI In Vivo Anticancer Drug Screen. Data for tumor model P388 Leukemia (intraperitoneal) in B6D2F1 (BDF1) mice
Settings: higher T/C = longer survival
Outline: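 Each value expresses how treatment altered survival: treated-mouse outcome over vehicle-mouse outcome, both groups bearing the transplanted tumour.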

[1] = T/C endpoint: median survival time, dose: 400.0 mg/kg/injection, schedule: Q04DX003 (ip), vehicle: water
[2] = T/C endpoint: median survival time, dose: 100.0 mg/kg/injection, schedule: Q01DX009 (ip), vehicle: saline with Tween-80
[3] = T/C endpoint: median survival time, dose: 200.0 mg/kg/injection, schedule: Q01DX009 (ip), vehicle: saline with Tween-80
[4] = T/C endpoint: median survival time, dose: 12.5 mg/kg/injection, schedule: Q01DX009 (ip), vehicle: water
[5] = T/C endpoint: median survival time, dose: 50.0 mg/kg/injection, schedule: Q01DX009 (ip), vehicle: saline

O=C1NC(=O)C(c2cccs2)(c2cccs2)N1
survivor count (T/C endpoint: median survival time, dose: 50.0 mg/kg/injection, schedule: Q01DX009 (ip), vehicle: water): 2 of 6 | survivor count (T/C endpoint: median survival time, dose: 200.0 mg/kg/injection, schedule: Q01DX009 (ip), vehicle: water): 3 of 6 | survivor count (T/C endpoint: median survival time, dose: 400.0 mg/kg/injection, schedule: Q01DX009 (ip), vehicle: water): 0 of 6 | survivor count [1]: 1 of 6

CCCCn1cnc2c(SC)ncnc21
T/C (T/C endpoint: median survival time, dose: 50.0 mg/kg/injection, schedule: Q04DX003 (ip), vehicle: saline): 127 % of control

CCOC(=O)c1c[nH]c(=S)n1C
survivor count (T/C endpoint: median survival time, dose: 400.0 mg/kg/injection, schedule: Q01DX009 (ip), vehicle: Klucel (hydroxypropylcellulose) (HPC)): 1 of 6 | survivor count (T/C endpoint: median survival time, dose: 400.0 mg/kg/injection, schedule: Q04DX003 (ip), vehicle: Klucel (hydroxypropylcellulose) (HPC)): 5 of 6

C/C=C/c1cc2c(c(=O)o1)C(=O)[C@@H](O)[C@H](C)O2
T/C (T/C endpoint: mean survival time, dose: 50.0 mg/kg/injection, schedule: Q01DX010 (ip), vehicle: carboxymethylcellulose (CMC)): 133 % of control | T/C (T/C endpoint: mean survival time, dose: 100.0 mg/kg/injection, schedule: Q01DX010 (ip), vehicle: carboxymethylcellulose (CMC)): 139 % of control | survivor count (T/C endpoint: mean survival time, dose: 200.0 mg/kg/injection, schedule: Q01DX010 (ip), vehicle: carboxymethylcellulose (CMC)): 0 of 6 | T/C (T/C endpoint: median survival time, dose: 16.0 mg/kg/injection, schedule: Q01DX010 (ip), vehicle: other): 130 % of control | survivor count (T/C endpoint: median survival time, dose: 200.0 mg/kg/injection, schedule: Q01DX010 (ip), vehicle: other): 0 of 6

NC(=O)/C=C/C(=O)c1c(Cl)cccc1Cl
T/C (T/C endpoint: median survival time, dose: 3.13 mg/kg/injection, schedule: Q01DX009 (ip), vehicle: saline with Tween-80): 145 % of control | survivor count (T/C endpoint: median survival time, dose: 50.0 mg/kg/injection, schedule: Q01DX009 (ip), vehicle: saline with Tween-80): 5 of 6 | survivor count [2]: 0 of 6 | survivor count [3]: 0 of 6

CC1=C(O)/C(=C/C(C)CCC/C(C)=C/CC/C(C)=C/CCc2ccoc2)OC1=O (centres undefined)
T/C (T/C endpoint: median survival time, dose: 1.25 mg/kg/injection, schedule: Q01DX009 (ip), vehicle: saline with Tween-80): 131 % of control

O=Cc1nccn1Cc1ccccc1
survivor count (T/C endpoint: median survival time, dose: 400.0 mg/kg/injection, schedule: Q04DX003 (ip), vehicle: saline with Tween-80): 2 of 6

c1ccc(CN(CCNc2ccccc2)c2ccccc2)cc1
survivor count [4]: 3 of 6 | survivor count [1]: 2 of 6

Nc1ccc(C(=O)Nc2ccc(Nc3ccncc3)cc2)c([N+](=O)[O-])c1
T/C [5]: 130 % of control

CC(C)(C)OC(=O)NC(CCCCNC(=O)OCc1ccccc1)C(=O)NC(CCCCNC(=O)OCc1ccccc1)C(=O)NC(CCCCNC(=O)OCc1ccccc1)C(=O)OCc1ccccc1 (centres undefined)
survivor count (T/C endpoint: median survival time, dose: 100.0 mg/kg/injection, schedule: Q01DX005 (ip), vehicle: saline with Tween-80): 5 of 5

CCCCOCN(COCCCC)C12CC3CC(CC(C3)C1)C2
T/C [2]: 130 % of control | T/C [3]: 136 % of control

C=C/C=C\N(CC)CC
survivor count (T/C endpoint: median survival time, dose: 3.12 mg/kg/injection, schedule: Q01DX009 (ip), vehicle: water): 4 of 6 | survivor count [4]: 6 of 6

CCN(CC)CCCCCCCNc1cc(OC)cc2c(C)ccnc12
survivor count [5]: 1 of 6 | survivor count (T/C endpoint: median survival time, dose: 100.0 mg/kg/injection, schedule: Q01DX009 (ip), vehicle: saline): 0 of 6 | survivor count (T/C endpoint: median survival time, dose: 200.0 mg/kg/injection, schedule: Q01DX009 (ip), vehicle: saline): 0 of 6
